Data as given in PubChem BioAssay AID1159598 (NIAID, 2016).
Aim: 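Which TLR signalling parts human macrophages rely on after flagellin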. System: human THP-1 B5 reporter cells made macrophage-like with PMA. Knock-down reagent: single siRNA against human genes. Timing: reporter read 48 to 72 hours after siRNA transfection. Challenge: flagellin stimulation for 4 hours, dose not given. Measured: 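TNF promoter firefly luciferase over renilla after 4 h flagellin, plate median/MAD scaled, robust z versus negative controls, mean of replicates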. Scale: TNF reporter z-score: higher = stronger TNF promoter activity than controls. Hit rule: 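Active means the mean reporter z is about 1.5 or more, or about -1.5 or less; values closer to zero are inactive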. Meaning of the calls: active = reporter shifted beyond 1.5 z, up or down; inactive = reporter within 1.5 z of controls.
The whole screen tested 756 reagents; this is a part drawn at random. Of all reagents, 142 (19%) got an active call. 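Active includes both higher and lower reporter signal; each gene has six separate siRNAs, and no gene-level summary is deposited.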 The numbers tell different reagents against one gene apart. No sequences are given here. Not given: the amount of reagent.

gene	siRNA no.	TNF reporter z-score	Call
PIK3R1	1	0.725	inactive
PIK3R1	2	-0.0273	inactive
PIK3R1	3	-0.0965	inactive
PIK3R1	4	-1.47	inactive
PIK3R1	5	-1.63	active
PIK3R1	6	0.164	inactive
NFKBIE	1	-1.83	active
NFKBIE	2	-0.952	inactive
NFKBIE	3	-1.77	active
NFKBIE	4	-1.99	active
NFKBIE	5	-0.597	inactive
NFKBIE	6	-2.49	active
SIGIRR	1	0.182	inactive
SIGIRR	2	0.0576	inactive
SIGIRR	3	-0.158	inactive
SIGIRR	4	0.196	inactive
SIGIRR	5	1.35	inactive
SIGIRR	6	-0.594	inactive
TANK	1	0.342	inactive
TANK	2	0.0392	inactive
TANK	3	-0.567	inactive
TANK	4	1.39	inactive
TANK	5	-2.14	active
TANK	6	-2.36	active
LBP	1	-0.338	inactive
LBP	2	0.194	inactive
LBP	3	0.683	inactive
LBP	4	-1.24	inactive
LBP	5	0.446	inactive
LBP	6	-1.11	inactive
CXCL9	1	-2.57	active
CXCL9	2	-0.121	inactive
CXCL9	3	-0.551	inactive
CXCL9	4	-2.45	active
CXCL9	5	0.185	inactive
CXCL9	6	1.28	inactive
ARF6	1	0.857	inactive
ARF6	2	-0.213	inactive
ARF6	3	0.00836	inactive
ARF6	4	-1.08	inactive
ARF6	5	0.523	inactive
ARF6	6	0.512	inactive
CD180	1	0.575	inactive
CD180	2	-0.0553	inactive
CD180	3	-0.928	inactive
CD180	4	-0.711	inactive
CD180	5	-0.823	inactive
CD180	6	0.167	inactive
ELK4	1	-0.717	inactive
ELK4	2	-0.874	inactive
ELK4	3	0.222	inactive
ELK4	4	-0.112	inactive
ELK4	5	-0.792	inactive
ELK4	6	-1.3	inactive
TLR9	1	-1.42	inactive
TLR9	2	0.389	inactive
TLR9	3	-1.6	active
TLR9	4	0.316	inactive
TLR9	5	-0.079	inactive
TLR9	6	0.945	inactive
CD14	1	0.67	inactive
CD14	2	-0.223	inactive
CD14	3	0.869	inactive
CD14	4	0.134	inactive
CD14	5	0.337	inactive
CD14	6	-0.488	inactive
TAB3	1	-0.147	inactive
TAB3	2	-1.22	inactive
TAB3	3	-0.432	inactive
TAB3	4	-0.619	inactive
TAB3	5	0.22	inactive
TAB3	6	0.177	inactive

Look-ups from the list:
For “TNF reporter z-score”, CD14 #2 is entered as -0.223
Result of LBP #1 under “TNF reporter z-score”: -0.338
For “Call”, TLR9 #3 reads active
Entry for PIK3R1 #3 under “Call”: inactive
Value of CD14 #3 in “Call”: inactive
SIGIRR #1, Call: inactive

Continued:
gene	siRNA no.	TNF reporter z-score	Call
DUSP1	1	-0.138	inactive
DUSP1	2	-0.248	inactive
DUSP1	3	-0.0107	inactive
DUSP1	4	1.18	inactive
DUSP1	5	-0.432	inactive
DUSP1	6	-0.0658	inactive
ETS1	1	0.103	inactive
ETS1	2	-1.01	inactive
ETS1	3	-1.67	active
ETS1	4	-0.577	inactive
ETS1	5	0.965	inactive
ETS1	6	-1.83	active
NFKB1	1	-1.67	active
NFKB1	2	-0.833	inactive
NFKB1	3	-1.68	active
NFKB1	4	-1.3	inactive
NFKB1	5	0.899	inactive
NFKB1	6	-0.617	inactive
PIK3R2	1	0.837	inactive
PIK3R2	2	-0.227	inactive
PIK3R2	3	0.321	inactive
PIK3R2	4	-0.438	inactive
PIK3R2	5	-1.79	active
PIK3R2	6	-1.04	inactive
TBKBP1	1	-0.0171	inactive
TBKBP1	2	-0.0351	inactive
TBKBP1	3	0.69	inactive
TBKBP1	4	0.473	inactive
TBKBP1	5	-0.161	inactive
TBKBP1	6	-0.829	inactive
TRAF3	1	-1.21	inactive
TRAF3	2	-2.79	active
TRAF3	3	0.182	inactive
TRAF3	4	-0.883	inactive
TRAF3	5	-0.78	inactive
TRAF3	6	1.04	inactive
MAP3K8	1	-2.02	active
MAP3K8	2	-1.54	active
MAP3K8	3	-2.38	active
MAP3K8	4	-1.65	active
MAP3K8	5	-2.14	active
MAP3K8	6	-0.63	inactive
